One molecule from publication PMC6949046 can be followed below.

These are yes or no findings as the source states them, for the method shown. Binding seen in cells or lysates may run through a third protein. Some entries that bind do so weakly or less than the wild type.

This experiment addresses T1, Sirtuin1 (Sirt1) (mouse (endogenous in mouse heart and isolated P1 mouse cardiomyocytes)) (UniProt Q923E4).
T1 sequence: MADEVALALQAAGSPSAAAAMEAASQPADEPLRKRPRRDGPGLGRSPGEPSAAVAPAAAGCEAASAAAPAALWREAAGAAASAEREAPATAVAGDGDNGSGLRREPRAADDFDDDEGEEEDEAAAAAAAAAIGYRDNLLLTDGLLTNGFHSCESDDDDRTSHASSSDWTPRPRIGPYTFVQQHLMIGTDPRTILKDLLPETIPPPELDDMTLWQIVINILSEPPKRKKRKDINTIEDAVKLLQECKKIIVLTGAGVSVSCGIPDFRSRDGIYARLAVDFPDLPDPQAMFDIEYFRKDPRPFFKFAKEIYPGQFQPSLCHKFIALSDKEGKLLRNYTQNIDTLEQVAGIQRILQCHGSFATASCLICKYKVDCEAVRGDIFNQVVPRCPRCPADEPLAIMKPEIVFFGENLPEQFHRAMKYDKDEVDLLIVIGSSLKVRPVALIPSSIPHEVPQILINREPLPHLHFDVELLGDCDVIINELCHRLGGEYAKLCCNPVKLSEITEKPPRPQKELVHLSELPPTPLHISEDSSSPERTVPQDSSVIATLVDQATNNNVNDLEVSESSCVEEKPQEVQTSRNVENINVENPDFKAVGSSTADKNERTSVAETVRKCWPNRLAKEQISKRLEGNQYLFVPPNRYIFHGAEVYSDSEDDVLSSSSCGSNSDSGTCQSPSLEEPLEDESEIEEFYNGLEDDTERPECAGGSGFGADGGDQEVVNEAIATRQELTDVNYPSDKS
Nature of the experiment: co-IP; lysates of isolated P1 mouse cardiomyocytes; immunoprecipitated with Sirt1 antibody and blotted with p21 antibody, and vice versa; IgG as negative control; protein A/G-agarose beads at 4°C for 12 h.

B1: p21 (encoded by cyclin-dependent kinase inhibitor 1A) (protein, UniProt P39689 1-159)
chain: MSNPGDVRPVPHRSKVCRCLFGPVDSEQLRRDCDALMAGCLQEARERWNFDFVTETPLEGNFVWERVRSLGLPKVYLSPGSRSRDDLGGDKRPSTSSALLQGPAPEDHVALSLSCTLVSERPEDSPGGPGTSQGRKRRQTSLTDFYHSKRRLVFCKRKP
On to B1, for which the binding result is reported as “binds”.
